Data reported in paper PMC11322867.
Results are given in words; binding and its absence hold for the method and conditions named. In cells and extracts the contact can be indirect. Some entries that bind do so weakly or less than the wild type.

Chains of the proteins cited; added tags and fusions are not shown.
UniProt Q9HAU4: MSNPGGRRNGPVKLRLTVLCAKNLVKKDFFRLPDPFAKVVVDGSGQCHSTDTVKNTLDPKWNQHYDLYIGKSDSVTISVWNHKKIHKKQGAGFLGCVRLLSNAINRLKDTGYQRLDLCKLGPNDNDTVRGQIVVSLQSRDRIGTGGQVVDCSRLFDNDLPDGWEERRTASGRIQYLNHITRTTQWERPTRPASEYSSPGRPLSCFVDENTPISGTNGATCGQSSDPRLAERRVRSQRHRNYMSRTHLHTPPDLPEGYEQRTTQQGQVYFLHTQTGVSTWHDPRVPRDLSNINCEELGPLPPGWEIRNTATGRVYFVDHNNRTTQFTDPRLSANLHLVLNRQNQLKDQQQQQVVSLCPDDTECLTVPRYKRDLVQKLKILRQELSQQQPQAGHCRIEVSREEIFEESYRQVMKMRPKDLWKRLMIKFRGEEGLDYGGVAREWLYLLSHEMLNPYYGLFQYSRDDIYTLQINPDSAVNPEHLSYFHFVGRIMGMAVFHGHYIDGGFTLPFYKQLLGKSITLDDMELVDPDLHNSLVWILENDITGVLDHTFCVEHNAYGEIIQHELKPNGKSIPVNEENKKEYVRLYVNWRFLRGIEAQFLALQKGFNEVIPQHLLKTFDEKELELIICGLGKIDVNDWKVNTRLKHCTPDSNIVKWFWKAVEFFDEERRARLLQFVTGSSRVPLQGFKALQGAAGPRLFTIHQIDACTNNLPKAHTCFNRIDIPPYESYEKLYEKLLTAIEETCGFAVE

Molecular target: T1, Guanosine triphosphate cyclohydrolase 1 (human (endogenous in HUVECs)) (UniProt P30793)
T1 sequence: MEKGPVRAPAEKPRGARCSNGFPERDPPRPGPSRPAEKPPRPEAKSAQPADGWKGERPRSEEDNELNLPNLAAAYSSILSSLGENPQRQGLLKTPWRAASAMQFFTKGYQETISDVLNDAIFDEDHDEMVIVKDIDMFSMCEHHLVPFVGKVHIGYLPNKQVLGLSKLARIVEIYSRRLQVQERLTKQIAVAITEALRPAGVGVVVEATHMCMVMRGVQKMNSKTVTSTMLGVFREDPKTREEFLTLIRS
Experiment: co-IP; endogenous proteins in HUVEC lysate (Triton X-100 buffer); primary antibodies overnight at 4°C, MG132, Protein G Plus/Protein A-agarose beads 2 h at 4°C; reciprocal coIP, western blot

Smad-ubiquitination regulatory factor 2 (from UniProt Q9HAU4 1-748) (enzyme)
binding: binds
